Results are given in words; binding and its absence hold for the method and conditions named. Some results given as binding are weak or reduced against the parent protein; the word gives no strength.
Target: TNFR2 (UniProt P20333)
Assay: flow cytometry on cells; TNFR2-overexpressing Jurkat cells (JK-R2) treated with biotin-UMR2-705, detected with APC-conjugated streptavidin; control Jurkat-NC cells alongside; only the binder purified

Amino acid sequences for entries named in this document (tags omitted). Residues count along the entry.
UniProt P20333, residues 23-461: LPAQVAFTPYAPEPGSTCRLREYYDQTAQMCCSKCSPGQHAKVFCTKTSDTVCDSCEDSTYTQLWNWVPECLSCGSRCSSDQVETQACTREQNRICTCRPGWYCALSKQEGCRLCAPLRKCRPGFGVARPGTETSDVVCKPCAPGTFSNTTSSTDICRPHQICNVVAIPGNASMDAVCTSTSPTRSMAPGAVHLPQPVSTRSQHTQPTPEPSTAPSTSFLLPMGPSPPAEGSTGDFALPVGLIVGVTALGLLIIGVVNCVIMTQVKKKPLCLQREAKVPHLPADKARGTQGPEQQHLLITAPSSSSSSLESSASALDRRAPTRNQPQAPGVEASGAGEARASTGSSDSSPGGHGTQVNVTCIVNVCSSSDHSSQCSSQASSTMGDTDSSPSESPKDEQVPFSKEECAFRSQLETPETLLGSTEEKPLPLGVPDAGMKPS

With DLLISIY (biotin (position not given)) [biotin-UMR2-705] the binding was “binds”.

From publication PMC12689330
